## Percent effect of library compounds

Values are the deposited “Percent Effect”, in %.
The record does not define 0% and 100%; most values in the screen are far below 50% and negative numbers occur (in some assays of this library far below -100).
The compounds are a random part of those screened.

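Whole-cell growth test on Mycobacterium tuberculosis, read after 4 days in a medium based on cholesterol and the lipid DPPC; the read-out is not stated. Compounds at 500 µM. Higher reads as more growth inhibition (inferred: compounds with an IC50 in retests scored well above the rest). Of about 18,000 compounds tested this way, about 900 (5%) reached 50% or more in at least one test.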

{"structure": "CNCC1CCCOC1", "stereo": "stereo not given", "effect": 6.744}
{"structure": "CC(NC(=O)c1cc(Cl)sc1Cl)C(=O)N1CCOCC1", "stereo": "stereo not given", "effect": 9.818}
{"structure": "Cc1cccc(C)c1NC(=O)Cn1cnc(C#N)n1", "effect": -25.55}
{"structure": "CC(C)c1cc(C(=O)NCC2CCC(=O)N2C)n(C)n1", "stereo": "stereo not given", "effect": 2.932}
{"structure": "COCC(=O)Nc1ccc(-n2cccn2)nc1", "effect": 3.82}
{"structure": "COc1ccc(Cl)cc1CNCCSc1nnnn1C", "effect": 26.09}
{"structure": "CCOCC(=O)N1CCN(C)Cc2ccccc21", "effect": 14.54}
{"structure": "Cc1cccc(NC(=O)c2ccc(=O)n(C)c2)c1C", "effect": -0.3192}
{"structure": "CNC(=O)CSCC(=O)NC(C)(C)C", "effect": 33.16}
{"structure": "Cc1cc(NC(=O)NCC2CCS(=O)(=O)C2)no1", "stereo": "stereo not given", "effect": -25.12}
{"structure": "COCCNC(C)COC", "stereo": "stereo not given", "effect": -6.18}
{"structure": "CC1CN(C)CCN1CC(=O)NC(N)=O", "stereo": "stereo not given", "effect": 4.28}
{"structure": "COCCNC(=O)CN(C)Cc1ccccc1", "effect": 27.02}
{"structure": "OCCOc1ccc(CNCCn2cccn2)c(Br)c1", "effect": 41.63}
{"structure": "CCOc1ccc2c(c1)C(N)CCO2", "stereo": "stereo not given", "effect": 23.63}
{"structure": "CN(CC(N)=O)C(=O)c1cc(Cl)c2c(c1)OCO2", "effect": -17.56}
{"structure": "CNS(=O)(=O)c1ccc(CNc2cccc(C)n2)cc1", "effect": -16.68}
{"structure": "CC(C)NC(=O)Nc1cccc(S(=O)(=O)C(F)F)c1", "effect": 69.64}
{"structure": "CCc1ccc(C(=O)NCCCN2CCCC2=O)s1", "effect": 6.05}
{"structure": "O=C(NC1=NCCS1)c1cc2cc(F)ccc2s1", "effect": 33.19}
{"structure": "O=C1CCN(Cc2cc(Br)cc3cccnc23)CCN1", "effect": 59.43}
{"structure": "Cc1ccc(C(C)CNC(=O)CCS(C)(=O)=O)cc1", "stereo": "stereo not given", "effect": 8.163}
{"structure": "CO[C@H]1CNCC1NC(=O)c1sc(C)nc1C", "stereo": "stereo not given in full", "effect": -19.15}
{"structure": "O=C(Cn1cncn1)Nc1cccc(F)c1", "effect": 2.439}
{"structure": "CN(Cc1ccccc1)C(=O)c1cccnc1O", "effect": 6.166}
{"structure": "COc1ccc(C(NCCO)C2CCOCC2)cc1", "stereo": "stereo not given", "effect": 30.94}
{"structure": "CC(=O)N1CCN(CCNC(=O)Nc2nncs2)CC1", "effect": -1.949}
{"structure": "Cc1nc([C@H]2CCCN2)cs1", "effect": -16.84}
{"structure": "CNC(=O)COC(=O)c1scc(C)c1I", "effect": -0.265}
{"structure": "Cc1cc(C(=O)CCC(=O)NC(C)CO)c(C)s1", "stereo": "stereo not given", "effect": 7.838}
{"structure": "CS(=O)(=O)NCC1CCCN(c2ncc(Cl)cc2F)C1", "stereo": "stereo not given", "effect": 63.95}
{"structure": "CN(C)S(=O)(=O)N(C)CCc1ccccn1", "effect": -6.516}
{"structure": "CN(C)C(=O)C1CCCN1c1cccc(C(F)(F)F)n1", "stereo": "stereo not given", "effect": 3.667}
{"structure": "O=C(NC(CO)c1ccccc1)[C@@H](O)c1ccccc1", "stereo": "stereo not given in full", "effect": 22.8}
{"structure": "Nc1nc(C(F)(F)F)ns1", "effect": -0.3291}
{"structure": "CCc1ncc(CNC)s1", "effect": -8.95}
{"structure": "COc1cccc(OC2CN(C(=O)[C@@H](N)CO)C2)c1", "effect": 4.322}
{"structure": "Cc1cccc(C)c1OC1CN(C(=O)CC(O)CN)C1", "stereo": "stereo not given", "effect": 24.66}
{"structure": "CN(C)S(=O)(=O)c1ccc(CN2CCC(C(N)=O)C2)o1", "stereo": "stereo not given", "effect": -1.433}
{"structure": "CCc1nccn1CCCNC(=O)[C@H]1CC[C@@H](N)C1", "effect": -16.39}

The first 3 entries again:

CNCC1CCCOC1 (stereo not given) read 6.744%.
CC(NC(=O)c1cc(Cl)sc1Cl)C(=O)N1CCOCC1 (stereo not given) read 9.818%.
Cc1cccc(C)c1NC(=O)Cn1cnc(C#N)n1 read -25.55%.

The values are deposited in ChEMBL (CHEMBL3988442, “University of Dundee, Small-Polar-MMV Screening Library” (2021)).